According to patent US20080026474A1, “ASSAY FOR DIFFERENTIATING COMPOUNDS THAT MODULATE THE EXTRINSIC AND/OR INTRINSIC COAGULATION PATHWAYS” (Bristol-Myers Squibb Company, priority 2006, published 2008):

Tested on: thrombus formation in carotid artery
Assay: Rabbit ECAT model
Format: in vivo
Details: ED80 (rabbit ECAT) versus 2×Base (human PRP)
Method: Briefly, male, New Zealand, white rabbits were anesthetized with ketamine (50 mg/kg+50 mg/kg/h i.m.) and xylazine (10 mg/kg+10 mg/kg/h i.m.). These anesthetics were supplemented as needed. An electromagnetic flow probe was placed on a segment of an isolated carotid artery to monitor blood flow. Thrombus formation was induced by electrical stimulation of the carotid artery for 3 min at 4 mA using an external stainless steel bipolar electrode. […] Plasma concentrations were determined in blood samples taken at the end of the experiment by liquid chromatography-tandem mass spectrometry.
Carotid blood flow was measured continuously over the 90-min period of thrombus formation and total carotid blood flow was calculated as an area under the carotid blood flow-time curve. Preservation of total CBF relative to sustained baseline flow was used to assess antithrombotic activity. The drug concentrations which maintained total blood flow at 80% of baseline (ED80) was the common comparator among antithrombotic agents.

SMILES	concentration needed to achieve ED80 in rabbit ECAT model relative to 2×Base concentration
NCc1ccccc1-n1nc(C(F)(F)F)cc1C(=O)Nc1ccc(-c2ccccc2S(N)(=O)=O)cc1F [1-(2-aminomethylphenyl)-3-trifluoromethyl-N-[3-fluoro-2′-(aminosulfonyl)[1,1′-biphenyl)]-4-yl]-1H-pyrazole-5-carboxyamide]	about 10 fold
COc1cc([C@@H]2Nc3ccc(C(=N)N)cc3[C@H]3c4ccccc4C[C@H]32)c(-c2ccc(C(=O)O)cc2)cc1O [Compound A, 2′-((6R,6aR,11bR)-2-Carbamimidoyl-5,6a,7,11b-tetrahydro-6H-indeno[2,1-c]quinolin-6-yl)-5′-hydroxy-4′-methoxy-biphenyl-4-carboxylic acid]	very similar
CS(=O)(=O)c1ccccc1-c1ccc(NC(=O)c2cc(C(F)(F)F)nn2-c2cccc(CN)c2)c(F)c1 [Compound B, 1-[3-(aminomethyl)phenyl]-N-[3-fluoro-2′-(methylsulfonyl)[1,1′-biphenyl]-4-yl]-3-(trifluoromethyl)-1H-pyrazole-5-carboxamide]	about 10 fold
